# Laboratory results reported in the supplement of paper PMC8728848.
# Some of the results follow.
# Columns and labels:
# Assay in all cases: glycan array binding signal (z-score within array); higher = stronger binding
# Settings in all cases: glycan notation: IUPAC condensed, linker removed
# [1] = target: Gal(b1-4)GlcNAc(b1-2)Man(a1-6)[Man(a1-3)]Man(b1-4)GlcNAc(b1-4)GlcNAc
# In short: (§1)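 The binding signal is a Z-score computed within each array and averaged over linkers. Arrays of the same protein sequence at different concentrations or buffers were also averaged together. Data originate from 3228 arrays in the Consortium for Functional Glycomics database, kept only where the protein sequence was available.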
# [2] = target: Gal(b1-4)GlcNAc(b1-2)[Gal(b1-4)GlcNAc(b1-4)]Man(a1-3)[Gal(b1-4)GlcNAc(b1-2)Man(a1-6)]Man(b1-4)GlcNAc(b1-4)GlcNAc
# In short: as §1
# [3] = target: Gal(b1-4)GlcNAc(b1-2)[Gal(b1-4)GlcNAc(b1-4)]Man(a1-3)[Gal(b1-4)GlcNAc(b1-2)[Gal(b1-4)GlcNAc(b1-6)]Man(a1-6)]Man(b1-4)GlcNAc(b1-4)GlcNAc
# In short: as §1
# [4] = target: Gal(b1-4)GlcNAc(b1-2)[Gal(b1-4)GlcNAc(b1-4)]Man(a1-3)[GlcNAc(b1-4)][Gal(b1-4)GlcNAc(b1-2)Man(a1-6)]Man(b1-4)GlcNAc(b1-4)GlcNAc
# In short: as §1
# [5] = target: Gal(b1-4)GlcNAc(b1-2)[Gal(b1-4)GlcNAc(b1-4)]Man(a1-3)[GlcNAc(b1-4)][Gal(b1-4)GlcNAc(b1-2)[Gal(b1-4)GlcNAc(b1-6)]Man(a1-6)]Man(b1-4)GlcNAc(b1-4)GlcNAc
# In short: as §1
# [6] = target: Gal(b1-4)GlcNAc(b1-2)[Gal(b1-4)GlcNAc(b1-6)]Man(a1-6)[Gal(b1-4)GlcNAc(b1-2)Man(a1-3)]Man(b1-4)GlcNAc(b1-4)GlcNAc
# In short: as §1
# [7] = target: Gal(b1-4)GlcNAc(b1-2)[Gal(b1-4)GlcNAc(b1-6)]Man(a1-6)[GlcNAc(b1-4)][Gal(b1-4)GlcNAc(b1-2)Man(a1-3)]Man(b1-4)GlcNAc(b1-4)GlcNAc
# In short: as §1
# [8] = target: Gal(b1-4)GlcNAc(b1-3)Gal(b1-3)GlcNAc
# In short: as §1
# [9] = target: Gal(b1-4)GlcNAc(b1-3)Gal(b1-4)Glc
# In short: as §1
# [10] = target: Gal(b1-4)GlcNAc(b1-3)Gal(b1-4)GlcNAc
# In short: as §1
# [11] = target: Gal(b1-4)GlcNAc(b1-3)Gal(b1-4)GlcNAc(b1-3)Gal(b1-4)GlcNAc
# In short: as §1
# [12] = target: Gal(b1-4)GlcNAc(b1-3)Gal(b1-4)[Fuc(a1-3)GlcNAc(b1-6)]Gal(b1-4)Glc
# In short: as §1
# [13] = target: Gal(b1-4)GlcNAc(b1-3)Gal(b1-4)[Fuc(a1-3)]GlcNAc(b1-3)Gal(b1-4)[Fuc(a1-3)]GlcNAc
# In short: as §1
# [14] = target: Gal(b1-4)GlcNAc(b1-3)GalNAc
# In short: as §1
# [15] = target: Gal(b1-4)GlcNAc(b1-3)[Gal(b1-4)GlcNAc(b1-6)]Gal(b1-4)GlcNAc
# In short: as §1
# [16] = target: Gal(b1-4)GlcNAc(b1-3)[Gal(b1-4)GlcNAc(b1-6)]GalNAc
# In short: as §1
# [17] = target: Gal(b1-4)GlcNAc(b1-3)[GlcNAc(b1-6)]Gal(b1-4)GlcNAc
# In short: as §1
# [18] = target: Gal(b1-4)GlcNAc(b1-6)Gal(b1-4)GlcNAc
# In short: as §1
# [19] = target: Gal(b1-4)GlcNAc(b1-6)GalNAc
# In short: as §1
# [20] = target: Gal(b1-4)GlcNAc(b1-6)[Gal(b1-3)]GalNAc
# In short: as §1
# [21] = target: Gal(b1-6)Gal
# In short: as §1
# [22] = target: Gal3S(b1-3)GalNAc
# In short: as §1
# [23] = target: Gal3S(b1-3)GlcNAc
# In short: as §1
# [24] = target: Gal3S(b1-3)[Fuc(a1-4)]GlcNAc
# In short: as §1
# [25] = target: Gal3S(b1-4)Glc
# In short: as §1
# [26] = target: Gal3S(b1-4)Glc6S
# In short: as §1
# [27] = target: Gal3S(b1-4)GlcNAc
# In short: as §1
# [28] = target: Gal3S(b1-4)GlcNAc6S
# In short: as §1
# [29] = target: Gal3S(b1-4)[Fuc(a1-3)]Glc
# In short: as §1
# [30] = target: Gal3S(b1-4)[Fuc(a1-3)]Glc6S
# In short: as §1
# [31] = target: Gal3S4S(b1-4)GlcNAc
# In short: as §1
# [32] = target: Gal3S6S(b1-4)GlcNAc
# In short: as §1
# [33] = target: Gal3S6S(b1-4)GlcNAc6S
# In short: as §1
# [34] = target: Gal4S(b1-4)GlcNAc
# In short: as §1
# [35] = target: Gal4S6S(b1-4)GlcNAc
# In short: as §1
# [36] = target: Gal6S(b1-3)GlcNAc
# In short: as §1
# [37] = target: Gal6S(b1-3)GlcNAc6S
# In short: as §1
# [38] = target: Gal6S(b1-4)Glc
# In short: as §1
binder,measurement,setting,value
"Layilin (Mus musculus), Q8C351 (protein) MQPGAALQAMLLAVLLAKPRDSKGRLLSASDLDPRGGQLVCRGGTRRPCYKVIYFHDAFQRLNFEEAKETCMEDGGQLVSIETEDEQRLIEKFIENLLASDGDFWIGLKRLEEKQSNNTACQDLYAWTDGSTSQFRNWYVDEPSCGSEVCVVMYHQPSAPPGIGGSYMFQWNDDRCNMKNNFICKYHDDKPSTTPSIWPGGEATEPATPLLPEETQKEDTKETFKERREAALNLAYILIPSIPLFLLLVVTSAVCWVWICRRKREQTDPSTKEQHTIWPTPRQENSPNLDVYNVIRKQSEADLAEPRPDLKNISFRVCSGEAMPDDMSCDYENIAVNPSESGFVTLASMESGFVTNDIYEFSPDRMGRSKESGWVENEIYY",glycan array binding signal (z-score),[1],-0.537
same,glycan array binding signal (z-score),[2],0.535
same,glycan array binding signal (z-score),[3],-0.133
same,glycan array binding signal (z-score),[4],-0.669
same,glycan array binding signal (z-score),[5],-0.323
same,glycan array binding signal (z-score),[6],0.083
same,glycan array binding signal (z-score),[7],-0.619
same,glycan array binding signal (z-score),[8],0.562
same,glycan array binding signal (z-score),[9],-0.318
same,glycan array binding signal (z-score),[10],0.267
same,glycan array binding signal (z-score),[11],1.49
same,glycan array binding signal (z-score),[12],-0.248
same,glycan array binding signal (z-score),[13],-0.332
same,glycan array binding signal (z-score),[14],-0.153
same,glycan array binding signal (z-score),[15],0.967
same,glycan array binding signal (z-score),[16],-0.287
same,glycan array binding signal (z-score),[17],0.014
same,glycan array binding signal (z-score),[18],-0.582
same,glycan array binding signal (z-score),[19],-0.296
same,glycan array binding signal (z-score),[20],-0.278
same,glycan array binding signal (z-score),[21],-0.22
same,glycan array binding signal (z-score),[22],-0.76
same,glycan array binding signal (z-score),[23],-0.637
same,glycan array binding signal (z-score),[24],-0.293
same,glycan array binding signal (z-score),[25],-0.09
same,glycan array binding signal (z-score),[26],-0.128
same,glycan array binding signal (z-score),[27],0.53
same,glycan array binding signal (z-score),[28],-0.103
same,glycan array binding signal (z-score),[29],0.667
same,glycan array binding signal (z-score),[30],0.774
same,glycan array binding signal (z-score),[31],0.109
same,glycan array binding signal (z-score),[32],-0.561
same,glycan array binding signal (z-score),[33],-0.066
same,glycan array binding signal (z-score),[34],-0.069
same,glycan array binding signal (z-score),[35],-0.407
same,glycan array binding signal (z-score),[36],-0.243
same,glycan array binding signal (z-score),[37],-0.828
same,glycan array binding signal (z-score),[38],0.202

# Part of the list above, bar-delimited:
binder | measurement | setting | value
Layilin (Mus musculus), Q8C351 (protein) MQPGAALQAMLLAVLLAKPRDSKGRLLSASDLDPRGGQLVCRGGTRRPCYKVIYFHDAFQRLNFEEAKETCMEDGGQLVSIETEDEQRLIEKFIENLLASDGDFWIGLKRLEEKQSNNTACQDLYAWTDGSTSQFRNWYVDEPSCGSEVCVVMYHQPSAPPGIGGSYMFQWNDDRCNMKNNFICKYHDDKPSTTPSIWPGGEATEPATPLLPEETQKEDTKETFKERREAALNLAYILIPSIPLFLLLVVTSAVCWVWICRRKREQTDPSTKEQHTIWPTPRQENSPNLDVYNVIRKQSEADLAEPRPDLKNISFRVCSGEAMPDDMSCDYENIAVNPSESGFVTLASMESGFVTNDIYEFSPDRMGRSKESGWVENEIYY | glycan array binding signal (z-score) | [2] | 0.535
same | glycan array binding signal (z-score) | [34] | -0.069
